{"source": "PubChem BioAssay AID652259 (Drosophila RNAi Screening Center, 2013)", "purpose": "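Knock-downs that push a Wingless-driven reporter up or down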 (primary screen)", "system": "Drosophila clone 8 imaginal disc epithelial cells", "reagent": "long dsRNA against Drosophila genes", "treatment": "pathway stimulated by co-transfected Wingless expression plasmid", "measured": "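Dual luciferase reads per well after Wingless plasmid stimulation: reporter firefly light and Renilla control light; activity is firefly divided by Renilla, a ratio not deposited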", "scale": "firefly reporter light: higher = more Wg reporter light, before normalisation; Renilla control light: higher = more transfected or surviving cells", "call rule": "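Strong candidates differ from their plate mean by at least two out of four per-plate statistical tests; weak candidates meet just one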", "calls": "active = candidate regulator (raises or lowers reporter); inactive = not a candidate", "note": "The screen tested about 22,000 reagents; shown is a random part of those with a known target gene and a result. Of all reagents, 233 (1.1%) got an active call. 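Light values are raw, unnormalised plate reads; the ratio scores behind the reporter calls were not deposited.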 No sequences are given here. Not given: the amount of reagent, the time to read-out, the dose of the treatment."}
{"predicted target": "fand (GeneID 36514)", "amplicon": "DRSC06967", "firefly reporter light, replicate 1": 10299, "Renilla control light, replicate 1": 2477, "outcome": "inactive"}
{"predicted target": "inaD (GeneID 37629)", "amplicon": "DRSC04694", "firefly reporter light, replicate 1": 3316, "firefly reporter light, replicate 2": 7738, "Renilla control light, replicate 1": 758, "Renilla control light, replicate 2": 3085, "outcome": "inactive"}
{"predicted target": "CG32793 (GeneID 31280)", "amplicon": "DRSC18145", "firefly reporter light, replicate 1": 20040, "Renilla control light, replicate 1": 15092, "outcome": "inactive"}
{"predicted target": "CG32793 (GeneID 31280)", "amplicon": "DRSC18194", "firefly reporter light, replicate 1": 19997, "Renilla control light, replicate 1": 11815, "outcome": "inactive"}
{"predicted target": "Pgm1 (GeneID 44010)", "amplicon": "DRSC10490", "firefly reporter light, replicate 1": 2449, "Renilla control light, replicate 1": 1219, "outcome": "inactive"}
{"predicted target": "CG42594 (GeneID 8674091)", "amplicon": "DRSC18053", "firefly reporter light, replicate 1": 9600, "Renilla control light, replicate 1": 1494, "outcome": "inactive"}
{"predicted target": "CG42594 (GeneID 8674091)", "amplicon": "DRSC18408", "firefly reporter light, replicate 1": 18784, "Renilla control light, replicate 1": 8769, "outcome": "inactive"}
{"predicted target": "CG7295 (GeneID 33365)", "amplicon": "DRSC00699", "firefly reporter light, replicate 1": 1994, "firefly reporter light, replicate 2": 6697, "Renilla control light, replicate 1": 801, "Renilla control light, replicate 2": 2357, "outcome": "inactive"}
{"predicted target": "RpL37-2 (GeneID 37669)", "amplicon": "DRSC04584", "firefly reporter light, replicate 1": 3260, "firefly reporter light, replicate 2": 9099, "Renilla control light, replicate 1": 656, "Renilla control light, replicate 2": 2269, "outcome": "inactive"}
{"predicted target": "car (GeneID 32947)", "amplicon": "DRSC20316", "firefly reporter light, replicate 1": 4614, "firefly reporter light, replicate 2": 9760, "Renilla control light, replicate 1": 1340, "Renilla control light, replicate 2": 1728, "outcome": "inactive"}
{"predicted target": "nonC (GeneID 31625)", "amplicon": "DRSC18366", "firefly reporter light, replicate 1": 1411, "firefly reporter light, replicate 2": 7984, "Renilla control light, replicate 1": 585, "Renilla control light, replicate 2": 2832, "outcome": "inactive"}
{"predicted target": "nonC (GeneID 31625)", "amplicon": "DRSC18367", "firefly reporter light, replicate 1": 15936, "Renilla control light, replicate 1": 6853, "outcome": "inactive"}
{"predicted target": "CG42382 (GeneID 35938)", "amplicon": "DRSC07671", "firefly reporter light, replicate 1": 2352, "firefly reporter light, replicate 2": 9301, "Renilla control light, replicate 1": 605, "Renilla control light, replicate 2": 3595, "outcome": "inactive"}
{"predicted target": "Tsen54 (GeneID 39397)", "amplicon": "DRSC10527", "firefly reporter light, replicate 1": 5827, "Renilla control light, replicate 1": 2459, "outcome": "inactive"}
{"predicted target": "dpr16 (GeneID 40619)", "amplicon": "DRSC12217", "firefly reporter light, replicate 1": 10178, "Renilla control light, replicate 1": 1688, "outcome": "inactive"}
{"predicted target": "dpr16 (GeneID 40619)", "amplicon": "DRSC12249", "firefly reporter light, replicate 1": 4098, "Renilla control light, replicate 1": 1302, "outcome": "inactive"}
{"predicted target": "Pp1-87B (GeneID 49260)", "amplicon": "DRSC16794", "firefly reporter light, replicate 1": 11975, "Renilla control light, replicate 1": 2166, "outcome": "inactive"}
{"predicted target": "CG11373 (GeneID 50152)", "amplicon": "DRSC12170", "firefly reporter light, replicate 1": 10941, "Renilla control light, replicate 1": 3410, "outcome": "inactive"}
{"predicted target": "CG33958 (GeneID 37088)", "amplicon": "DRSC06472", "firefly reporter light, replicate 1": 4864, "Renilla control light, replicate 1": 2042, "outcome": "inactive"}
{"predicted target": "CG33958 (GeneID 37088)", "amplicon": "DRSC06944", "firefly reporter light, replicate 1": 9744, "Renilla control light, replicate 1": 2874, "outcome": "inactive"}
{"predicted target": "Nak (GeneID 35154)", "amplicon": "DRSC03379", "firefly reporter light, replicate 1": 5741, "Renilla control light, replicate 1": 1920, "outcome": "inactive"}
{"predicted target": "CG13676 (GeneID 38906)", "amplicon": "DRSC10035", "firefly reporter light, replicate 1": 1680, "firefly reporter light, replicate 2": 7104, "Renilla control light, replicate 1": 1556, "Renilla control light, replicate 2": 3188, "outcome": "inactive"}
{"predicted target": "Flad2 (GeneID 34759)", "amplicon": "DRSC02531", "firefly reporter light, replicate 1": 2536, "firefly reporter light, replicate 2": 7861, "Renilla control light, replicate 1": 1027, "Renilla control light, replicate 2": 2909, "outcome": "inactive"}
{"predicted target": "Rbfox1 (GeneID 39198)", "amplicon": "DRSC09034", "firefly reporter light, replicate 1": 5482, "Renilla control light, replicate 1": 2325, "outcome": "inactive"}
{"predicted target": "Rbfox1 (GeneID 39198)", "amplicon": "DRSC10157", "firefly reporter light, replicate 1": 7493, "Renilla control light, replicate 1": 4608, "outcome": "inactive"}
{"predicted target": "Rbfox1 (GeneID 39198)", "amplicon": "DRSC10320", "firefly reporter light, replicate 1": 10442, "Renilla control light, replicate 1": 3092, "outcome": "inactive"}
{"predicted target": "Rbfox1 (GeneID 39198)", "amplicon": "DRSC21378", "firefly reporter light, replicate 1": 8.26e5, "firefly reporter light, replicate 2": 8.09e5, "Renilla control light, replicate 1": 4.11e5, "Renilla control light, replicate 2": 3.72e5, "outcome": "inactive"}
{"predicted target": "CG33158 (GeneID 39834)", "amplicon": "DRSC09708", "firefly reporter light, replicate 1": 4556, "Renilla control light, replicate 1": 1511, "outcome": "inactive"}
{"predicted target": "CG33158 (GeneID 39834)", "amplicon": "DRSC09709", "firefly reporter light, replicate 1": 8743, "Renilla control light, replicate 1": 4316, "outcome": "inactive"}
{"predicted target": "CG33158 (GeneID 39834)", "amplicon": "DRSC10438", "firefly reporter light, replicate 1": 9621, "Renilla control light, replicate 1": 2915, "outcome": "inactive"}
{"predicted target": "EMC2B (GeneID 42045)", "amplicon": "DRSC15506", "firefly reporter light, replicate 1": 8137, "Renilla control light, replicate 1": 2384, "outcome": "inactive"}
{"predicted target": "CG15390 (GeneID 33422)", "amplicon": "DRSC00404", "firefly reporter light, replicate 1": 2534, "firefly reporter light, replicate 2": 4218, "Renilla control light, replicate 1": 1028, "Renilla control light, replicate 2": 2198, "outcome": "inactive"}

Laid out differently: 2 of the entries above.
predicted target,amplicon,"firefly reporter light, replicate 1","firefly reporter light, replicate 2","Renilla control light, replicate 1","Renilla control light, replicate 2",outcome
CG13676 (GeneID 38906),DRSC10035,1680,7104,1556,3188,inactive
Flad2 (GeneID 34759),DRSC02531,2536,7861,1027,2909,inactive
